Data as given in PubChem BioAssay AID330 (DTP/NCI, 2004).
The list is a part of this screen's results and no random one: it gathers tests that were run many times, whatever their T/C, doses with no T/C, and many T/C values between a quarter and a half above the control. Further doses and runs are listed elsewhere. T/C is the treated group as % of the vehicle group. Where survival is the endpoint, the PubChem record calls one and a half times the control and up active, and a quarter to a half above the control has no call in these data; cut-offs in other NCI protocols can differ. Schedules are NCI's codes, taken here to give the interval after Q, in days (D) or hours (H), and the number of doses after X. Some molecules as drawn cover several salts, stereoisomers or complexes of the source; a dose is that of the sample tested. Some T/C values carry the count of animals alive at the toxicity check (mostly the fifth day); without a count, all were alive then. Some doses were run more than once; the values are given in rising order. Marks such as (2×) say how often a value occurs here.

System: P388 leukemia ip, CD2F1 mice, survival T/C
Assay: NCI In Vivo Anticancer Drug Screen. Data for tumor model P388 Leukemia (intraperitoneal) in CD2F1 (CDF1) mice
Conditions: T/C endpoint: median survival time, higher T/C = longer survival

COc1cc(NCc2ccc3nc(N)nc(N)c3c2C)cc(OC)c1OC
T/C (dose: 2.5 mg/kg/injection, schedule: Q01DX009 (ip), vehicle: sodium bicarbonate): 144 % of control | T/C (dose: 2.59 mg/kg/injection, schedule: Q01DX009 (ip), vehicle: Klucel (hydroxypropylcellulose) (HPC)): 129 % of control | T/C (dose: 3.11 mg/kg/injection, schedule: Q01DX009 (ip), vehicle: Klucel (hydroxypropylcellulose) (HPC)): 126 % of control | T/C (dose: 4.32 mg/kg/injection, schedule: Q01DX009 (ip), vehicle: Klucel (hydroxypropylcellulose) (HPC)): 135 % of control | T/C (dose: 4.32 mg/kg/injection, schedule: Q03HX006 (ip), vehicle: Klucel (hydroxypropylcellulose) (HPC)): 133 % of control | T/C (dose: 5.0 mg/kg/injection, schedule: Q01DX009 (ip), vehicle: distilled water + Tween-80): 128 % of control | T/C (dose: 5.0 mg/kg/injection, schedule: Q01DX009 (ip), vehicle: sodium bicarbonate): 146 % of control | T/C (dose: 5.18 mg/kg/injection, schedule: Q01DX009 (ip), vehicle: Klucel (hydroxypropylcellulose) (HPC)): 144 % of control | T/C (dose: 6.25 mg/kg/injection, schedule: Q01DX009 (ip), vehicle: Klucel (hydroxypropylcellulose) (HPC)): 144 % of control | T/C (dose: 7.2 mg/kg/injection, schedule: Q03HX006 (ip), vehicle: Klucel (hydroxypropylcellulose) (HPC)): 148 % of control | T/C (dose: 7.5 mg/kg/injection, schedule: Q01DX005 (ip), vehicle: Klucel (hydroxypropylcellulose) (HPC)): 144 % of control [7 of 8 alive] | T/C (dose: 7.5 mg/kg/injection, schedule: Q01DX009 (ip), vehicle: water): 136 % of control | T/C (dose: 8.39 mg/kg/injection, schedule: Q01DX009 (ip), vehicle: water): 148 % of control | T/C (dose: 10.0 mg/kg/injection, schedule: Q01DX009 (ip), vehicle: distilled water + Tween-80): 136, 137, 138, 142, 145, 146 % of control | T/C (dose: 13.0 mg/kg/injection, schedule: Q01DX005 (ip), vehicle: Klucel (hydroxypropylcellulose) (HPC)): 146 % of control [8 of 9 alive] | T/C (dose: 15.0 mg/kg/injection, schedule: Q01DX005 (ip), vehicle: water): 131 % of control [9 of 10 alive] | T/C (dose: 15.0 mg/kg/injection, schedule: Q01DX005 (iv), vehicle: water): 131 % of control | T/C (dose: 15.0 mg/kg/injection, schedule: Q01DX009 (oral), vehicle: water): 136 % of control | T/C (dose: 15.0 mg/kg/injection, schedule: Q03HX008 (ip), vehicle: water): 127 % of control | T/C (dose: 18.0 mg/kg/injection, schedule: Q01DX009 (ip), vehicle: distilled water + Tween-80, evaluated on day 30): 149, 153, 156, 162 % of control | T/C (dose: 18.0 mg/kg/injection, schedule: Q01DX009 (ip), vehicle: distilled water + Tween-80, evaluated on day 45): 156 % of control | T/C (dose: 20.0 mg/kg/injection, schedule: Q01DX009 (ip), vehicle: distilled water + Tween-80): 136, 151, 153, 156, 157, 171 % of control | T/C (dose: 21.6 mg/kg/injection, schedule: Q04DX002 (ip), vehicle: Klucel (hydroxypropylcellulose) (HPC)): 127 % of control | T/C (dose: 25.0 mg/kg/injection, schedule: Q01DX009 (oral), vehicle: sodium bicarbonate): 131 % of control | T/C (dose: 27.0 mg/kg/injection, schedule: Q01DX009 (ip), vehicle: distilled water + Tween-80, evaluated on day 30): 156, 157, 160, 161, 163, 171, 172, 178 % of control | T/C (dose: 27.0 mg/kg/injection, schedule: Q01DX009 (ip), vehicle: distilled water + Tween-80, evaluated on day 40): 165 % of control | T/C (dose: 27.0 mg/kg/injection, schedule: Q01DX009 (ip), vehicle: distilled water + Tween-80, evaluated on day 45): 159, 161, 166 % of control | T/C (dose: 30.0 mg/kg/injection, schedule: Q01DX005 (ip), vehicle: water): 142 % of control | T/C (dose: 30.0 mg/kg/injection, schedule: Q01DX005 (iv), vehicle: water): 142 % of control | T/C (dose: 30.0 mg/kg/injection, schedule: Q01DX005 (oral), vehicle: water): 139 % of control | T/C (dose: 30.0 mg/kg/injection, schedule: Q03HX008 (ip), vehicle: water): 132 % of control | T/C (dose: 36.0 mg/kg/injection, schedule: Q04DX002 (ip), vehicle: Klucel (hydroxypropylcellulose) (HPC)): 135 % of control | T/C (dose: 40.0 mg/kg/injection, schedule: Q01DX009 (ip), vehicle: distilled water + Tween-80, evaluated on day 30): 152, 153, 156, 157, 164, 164 [5 of 6 alive], 165, 167, 169, 170, 171 (2×), 178, 181, 183 % of control | T/C (dose: 40.0 mg/kg/injection, schedule: Q01DX009 (ip), vehicle: distilled water + Tween-80, evaluated on day 40): 165 % of control | T/C (dose: 40.0 mg/kg/injection, schedule: Q01DX009 (ip), vehicle: distilled water + Tween-80, evaluated on day 45): 157, 161, 167 % of control | T/C (dose: 40.3 mg/kg/injection, schedule: Q01DX005 (iv), vehicle: water): 145 % of control
